Data as given in PubChem BioAssay AID1259308 (NCATS, 2017).
This is a random part of about 59,000 deposited reagents. Of all reagents, about 1,510 (2.6%) got an active call. 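Calls use total luciferase alone and ignore viability, so some active siRNAs may act by altering cell number.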 The numbers tell different reagents against one gene apart. Not all columns of the deposit are shown. Reagent sequences are not shown.

Aim: 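Candidate targets for better recombinant protein yield in mammalian cells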 (primary screen)
Cell system: human HEK293 embryonic kidney cells stably expressing firefly luciferase (HEK-CMV-Luc2-Hygro)
Reagents: single siRNA against human genes, 0.8 pmol siRNA per well
Time to read-out: 72 h
Detection: 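Luciferase light (ONE-Glo) measured on one replicate plate set and viability (CellTiter-Glo) on the other, scaled to a negative control siRNA, with robust z-scores and luciferase per cell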
Reading the numbers: total luciferase, z-score and total luciferase, % of control: higher = more reporter protein produced
Hit rule: 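An siRNA counts as active if its total luciferase robust z-score exceeds 3; genes with two or more such siRNAs out of three were retested with fresh siRNAs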
Calls: active = raised luciferase; inactive = no rise

IZUMO1 #1 — total luciferase, z-score: -0.365; total luciferase, % of control: 74.6; call: inactive
IZUMO1 #2 — total luciferase, z-score: -0.349; total luciferase, % of control: 74.9; call: inactive
IZUMO1 #3 — total luciferase, z-score: 0.555; total luciferase, % of control: 92.9; call: inactive
FGF9 #1 — total luciferase, z-score: -0.0705; total luciferase, % of control: 80.5; call: inactive
FGF9 #2 — total luciferase, z-score: -1.17; total luciferase, % of control: 58.6; call: inactive
FGF9 #3 — total luciferase, z-score: 1.08; total luciferase, % of control: 103; call: inactive
LINC02817 #1 — total luciferase, z-score: 0.998; total luciferase, % of control: 102; call: inactive
LINC02817 #2 — total luciferase, z-score: -1; total luciferase, % of control: 62; call: inactive
LINC02817 #3 — total luciferase, z-score: 6.61; total luciferase, % of control: 213; call: active
AFG3L2 #1 — total luciferase, z-score: 0.537; total luciferase, % of control: 92.6; call: inactive
AFG3L2 #2 — total luciferase, z-score: -0.425; total luciferase, % of control: 73.4; call: inactive
AFG3L2 #3 — total luciferase, z-score: -1.92; total luciferase, % of control: 43.7; call: inactive
CTDSPL #1 — total luciferase, z-score: 0.3; total luciferase, % of control: 87.8; call: inactive
CTDSPL #2 — total luciferase, z-score: -0.796; total luciferase, % of control: 66.1; call: inactive
CTDSPL #3 — total luciferase, z-score: -0.215; total luciferase, % of control: 77.6; call: inactive
SSBP2 #1 — total luciferase, z-score: 0.17; total luciferase, % of control: 85.3; call: inactive
SSBP2 #2 — total luciferase, z-score: 0.34; total luciferase, % of control: 88.7; call: inactive
SSBP2 #3 — total luciferase, z-score: -0.819; total luciferase, % of control: 65.6; call: inactive
GLDN #1 — total luciferase, z-score: 1.68; total luciferase, % of control: 115; call: inactive
GLDN #2 — total luciferase, z-score: 0.147; total luciferase, % of control: 84.8; call: inactive
GLDN #3 — total luciferase, z-score: -0.436; total luciferase, % of control: 73.2; call: inactive
ZNF345 #1 — total luciferase, z-score: -1.5; total luciferase, % of control: 52; call: inactive
ZNF345 #2 — total luciferase, z-score: -0.524; total luciferase, % of control: 71.5; call: inactive
ZNF345 #3 — total luciferase, z-score: 0.0279; total luciferase, % of control: 82.4; call: inactive
CLEC4G #1 — total luciferase, z-score: -0.0736; total luciferase, % of control: 80.4; call: inactive
CLEC4G #2 — total luciferase, z-score: 1.1; total luciferase, % of control: 104; call: inactive
CLEC4G #3 — total luciferase, z-score: -0.869; total luciferase, % of control: 64.6; call: inactive
HLTF #1 — total luciferase, z-score: -0.729; total luciferase, % of control: 67.4; call: inactive
HLTF #2 — total luciferase, z-score: -0.545; total luciferase, % of control: 71.1; call: inactive
HLTF #3 — total luciferase, z-score: -0.764; total luciferase, % of control: 66.7; call: inactive
C2orf78 #1 — total luciferase, z-score: 0.226; total luciferase, % of control: 86.4; call: inactive
C2orf78 #2 — total luciferase, z-score: 2.75; total luciferase, % of control: 137; call: inactive
C2orf78 #3 — total luciferase, z-score: 0.487; total luciferase, % of control: 91.6; call: inactive
CHGA #1 — total luciferase, z-score: -0.102; total luciferase, % of control: 79.8; call: inactive
CHGA #2 — total luciferase, z-score: -0.576; total luciferase, % of control: 70.4; call: inactive
CHGA #3 — total luciferase, z-score: 0.537; total luciferase, % of control: 92.6; call: inactive
CCDC102B #1 — total luciferase, z-score: 1.29; total luciferase, % of control: 108; call: inactive
CCDC102B #2 — total luciferase, z-score: 0.615; total luciferase, % of control: 94.1; call: inactive
CCDC102B #3 — total luciferase, z-score: 0.702; total luciferase, % of control: 95.9; call: inactive
IST1 #1 — total luciferase, z-score: -0.703; total luciferase, % of control: 67.9; call: inactive
IST1 #2 — total luciferase, z-score: -0.696; total luciferase, % of control: 68; call: inactive
IST1 #3 — total luciferase, z-score: -1.25; total luciferase, % of control: 57.1; call: inactive

Part of the list above in another layout:
| target | reagent no. | total luciferase, z-score | total luciferase, % of control | call |
| --- | --- | --- | --- | --- |
| IZUMO1 | 1 | -0.365 | 74.6 | inactive |
| IZUMO1 | 2 | -0.349 | 74.9 | inactive |
| IZUMO1 | 3 | 0.555 | 92.9 | inactive |
| FGF9 | 1 | -0.0705 | 80.5 | inactive |
